Measurements: PubChem BioAssay AID328 (DTP/NCI, 2004)
The list is a part of this screen's results and no random one: it is rich in T/C values a quarter to a half above the control, in often repeated tests (any T/C) and in doses without a T/C. Further doses and runs are listed elsewhere. T/C gives the treated animals as a percentage of the vehicle group. Some doses have a count of surviving animals in place of a T/C: the source holds a T/C of zero for them, seemingly a mark for toxic or unscored doses. Some survivor counts are full or nearly so, which does not show that the dose was tolerated: survival well below the control is almost never listed, so the zero probably covers shortened survival too. Counts of survivors are from the toxicity check (mostly the fifth day) where no day follows; animals may have died later. Schedule codes are those of the source, read here as Q, the interval in days (D) or hours (H), X, the number of doses. Some entries hold several experiments; their values stand side by side, smallest first. Where survival is the endpoint, the PubChem record calls one and a half times the control and up active, and a quarter to a half above the control has no call in these data; cut-offs in other NCI protocols can differ. Some T/C values carry the count of animals alive at the toxicity check (mostly the fifth day); where none is given, no animal had died by that day. Signs of the kind (2×) give the number of equal values in this list.

Test system: BDF1 mice, P388 leukemia ip, median survival T/C
Assay: NCI In Vivo Anticancer Drug Screen. Data for tumor model P388 Leukemia (intraperitoneal) in B6D2F1 (BDF1) mice
Conditions: T/C endpoint: median survival time, higher T/C = longer survival
Summary of the method: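 Antitumour effect was judged in vivo: survival in drug-treated mice, normalised to that of vehicle-dosed controls, gives the reported T/C.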

[1] = dose: 100.0 mg/kg/injection, schedule: Q01DX001 (ip), vehicle: Klucel (hydroxypropylcellulose) (HPC)
[2] = dose: 200.0 mg/kg/injection, schedule: Q01DX001 (ip), vehicle: Klucel (hydroxypropylcellulose) (HPC)
[3] = dose: 400.0 mg/kg/injection, schedule: Q01DX001 (ip), vehicle: Klucel (hydroxypropylcellulose) (HPC)
[4] = dose: 100.0 mg/kg/injection, schedule: Q01DX009 (ip), vehicle: Klucel (hydroxypropylcellulose) (HPC)
[5] = dose: 400.0 mg/kg/injection, schedule: Q04DX003 (ip), vehicle: Klucel (hydroxypropylcellulose) (HPC)
[6] = dose: 50.0 mg/kg/injection, schedule: Q01DX001 (ip), vehicle: Klucel (hydroxypropylcellulose) (HPC)
[7] = dose: 50.0 mg/kg/injection, schedule: Q01DX005 (ip), vehicle: Klucel (hydroxypropylcellulose) (HPC)
[8] = dose: 50.0 mg/kg/injection, schedule: Q01DX009 (ip), vehicle: Klucel (hydroxypropylcellulose) (HPC)
[9] = dose: 50.0 mg/kg/injection, schedule: Q04DX002 (ip), vehicle: Klucel (hydroxypropylcellulose) (HPC)
[10] = dose: 50.0 mg/kg/injection, schedule: Q04DX003 (ip), vehicle: Klucel (hydroxypropylcellulose) (HPC)
[11] = dose: 100.0 mg/kg/injection, schedule: Q01DX005 (ip), vehicle: Klucel (hydroxypropylcellulose) (HPC)
[12] = dose: 100.0 mg/kg/injection, schedule: Q04DX002 (ip), vehicle: Klucel (hydroxypropylcellulose) (HPC)
[13] = dose: 100.0 mg/kg/injection, schedule: Q04DX003 (ip), vehicle: Klucel (hydroxypropylcellulose) (HPC)
[14] = dose: 200.0 mg/kg/injection, schedule: Q01DX005 (ip), vehicle: Klucel (hydroxypropylcellulose) (HPC)
[15] = dose: 200.0 mg/kg/injection, schedule: Q01DX009 (ip), vehicle: Klucel (hydroxypropylcellulose) (HPC)
[16] = dose: 200.0 mg/kg/injection, schedule: Q04DX002 (ip), vehicle: Klucel (hydroxypropylcellulose) (HPC)
[17] = dose: 200.0 mg/kg/injection, schedule: Q04DX003 (ip), vehicle: Klucel (hydroxypropylcellulose) (HPC)
[18] = dose: 400.0 mg/kg/injection, schedule: Q01DX005 (ip), vehicle: Klucel (hydroxypropylcellulose) (HPC)
[19] = dose: 400.0 mg/kg/injection, schedule: Q01DX009 (ip), vehicle: Klucel (hydroxypropylcellulose) (HPC)
[20] = dose: 400.0 mg/kg/injection, schedule: Q04DX002 (ip), vehicle: Klucel (hydroxypropylcellulose) (HPC)

`CC(=O)C(Cl)C(C)=O.CC(=O)C(Cl)C(C)=O.CO.CO.[Ni]` was tested, and the survivor count [1] was 1 of 6, the survivor count [2] was 0 of 6 and 6 of 6 and the survivor count [3] was 0 of 6.
`Clc1ccc(-n2nnc3cc(Cl)ccc32)c(Cl)c1` was tested, and the survivor count (dose: 50.0 mg/kg/injection, schedule: Q01DX009 (ip), vehicle: saline with Tween-80) was 7 of 7 and the survivor count (dose: 200.0 mg/kg/injection, schedule: Q01DX009 (ip), vehicle: saline with Tween-80) was 7 of 7.
For `CS(=O)(=O)c1ncc(Br)cn1`, the survivor count (dose: 400.0 mg/kg/injection, schedule: Q01DX009 (ip), vehicle: saline) was 6 of 6.
In the case of `CC1CC2=CC(=O)C=CC2(C)C2CCC3(C)C(O)CCC3C12` (centres undefined), the survivor count (dose: 12.5 mg/kg/injection, schedule: Q01DX009 (ip), vehicle: saline) is reported as 3 of 3, the survivor count (dose: 25.0 mg/kg/injection, schedule: Q01DX009 (ip), vehicle: saline) is reported as 3 of 3 and the survivor count [4] is reported as 4 of 6.
For `Cc1ccc(N2C(=O)CC(Sc3ccccc3N)C2=O)cc1` (centres undefined), the survivor count [5] was 6 of 6.
In the case of `CC(=O)[C@H]1CC[C@H]2[C@@H]3C[C@H](C)C4=CC(=O)CC[C@]4(C)[C@H]3C(=O)C[C@]12C`, the T/C [6] is reported as 90, 93 (2×), 95, 96 (2×), 97 (4×), 99, 100, 101 (2×), 104 (4×), 105, 106, 107 (2×), 108 (2×), 110, 111, 112 % of control, the survivor count [6] is reported as 5 of 6 and the T/C [7] is reported as 88 (2×), 89 [5 of 6 alive], 99, 100 (4×), 101 (2×), 102, 103 (3×), 104, 105, 106, 107 (2×), 108 (2×), 110 (3×), 111 (3×), 112, 113, 114 (2×), 116, 120, 121 % of control. For the same compound, the survivor count [7] was 3 of 3, the T/C [8] was 91, 92, 93, 94 (2×), 95 (2×), 96, 97 (3×), 98 (4×), 100, 101 (2×), 101 [2 of 3 alive], 104, 105 (2×), 106 (2×), 107 (3×), 111, 113, 118, 119, 119 [2 of 3 alive], 120, 148 % of control and the survivor count [8] was 5 of 6 and 3 of 3. The T/C [9] was 87 (2×), 92, 98, 99 (3×), 100 (6×), 102 (2×), 103, 105, 106 (4×), 108 (2×), 109, 111 (3×), 112 (2×), 113, 122 (2×), 123 % of control, the survivor count [9] was 6 of 6 and the T/C [10] was 87, 87 [2 of 3 alive], 89, 90, 94, 95 (2×), 96, 97, 98 (2×), 99 (4×), 100 (3×), 101, 102 [5 of 6 alive], 103, 104 (2×), 105 (2×), 106, 107, 110 (2×), 114, 118, 120, 125, 134 % of control. For the same compound, the survivor count [10] was 3 of 3 and 6 of 6, the T/C [1] was 87, 88, 90, 91, 92, 95, 96 (2×), 97, 98 (3×), 100 (2×), 101 (3×), 103 (2×), 104 (2×), 106, 107, 110, 111, 113, 115, 117 % of control and the T/C [11] was 89, 94 (2×), 95, 99, 99 [5 of 6 alive], 100, 100 [5 of 6 alive], 101, 102 (2×), 104 (3×), 105 (3×), 107 (2×), 107 [4 of 6 alive], 108, 109, 109 [5 of 6 alive], 110, 111, 112 (2×), 113 (2×), 115, 118, 121, 123, 125 % of control. For the same compound, the survivor count [11] was 6 of 6, the T/C [4] was 87, 88, 90, 91, 92, 94, 95 (3×), 97 (2×), 98, 99, 100 (2×), 101 (2×), 102, 103 (3×), 105, 106, 107 (2×), 109 (2×), 110 (3×), 111 (2×), 116, 122, 131 % of control and the survivor count [4] was 3 of 3. The T/C [12] was 89, 92 (4×), 93, 95 (2×), 96, 97, 98 (3×), 100 (2×), 101 (3×), 102, 103 (2×), 104 (2×), 105, 107 (2×), 108 (2×), 111, 112, 113, 116, 125 % of control, the survivor count [12] was 6 of 6 and the T/C [13] was 87, 91, 92, 93 (2×), 94 (2×), 96 (4×), 97 (2×), 98, 99, 100 (3×), 102 (3×), 103 (3×), 104, 105, 106, 107 (2×), 108, 109 (2×), 110, 114 [5 of 6 alive], 118 % of control. For the same compound, the survivor count [13] was 3 of 3, the T/C [2] was 88, 93, 94, 95, 96 (2×), 97 (2×), 98, 99 (2×), 100 (2×), 101 (4×), 102 (2×), 103 (2×), 107, 108 (2×), 110 (2×), 113 % of control and the survivor count [2] was 6 of 6. For the same compound, the T/C [14] was 89, 91, 95, 98, 99 (3×), 100, 101 (2×), 102, 103 (2×), 104, 107 (4×), 108 (4×), 109, 110 (4×), 111 (2×), 113, 115, 122 % of control, the survivor count [14] was 2 of 6, 3 of 3, 6 of 6 and the T/C [15] was 87, 88, 89, 92 (2×), 94, 95, 97 [2 of 3 alive], 98 (4×), 99 (2×), 99 [2 of 3 alive], 100, 102 (2×), 105 (2×), 106, 106 [4 of 6 alive], 110 (3×), 111 (2×), 113 (2×), 118 (2×), 150 % of control. The survivor count [15] was 3 of 3, the T/C [16] was 89, 92, 94, 98, 99 (2×), 100 (2×), 102 (2×), 103 (3×), 104 (2×), 105, 106 (3×), 108 [2 of 3 alive], 109, 111 (4×), 113 (2×), 116 (2×), 119, 120, 123, 125 % of control and the survivor count [16] was 6 of 6. For the same compound, the T/C [17] was 87, 89 (2×), 92, 98 [5 of 6 alive], 100 (4×), 101 (2×), 102 (2×), 103 (3×), 104, 105 (5×), 106, 107 (2×), 108, 109 (2×), 110 (2×), 112, 114, 115, 121 % of control, the survivor count [17] was 3 of 3 and 6 of 6 and the T/C [3] was 89, 90, 92, 93, 95 [5 of 6 alive], 97, 100 (3×), 101 (2×), 102, 103, 104, 105, 106 (3×), 107 (2×), 108, 110, 112 (3×), 120 % of control. The survivor count [3] was 0 of 3 and 6 of 6, the T/C [18] was 91 [4 of 6 alive], 93 (2×), 94 [4 of 6 alive], 97 [4 of 6 alive], 98, 99 (2×), 100, 104, 105, 107 (2×), 107 [5 of 6 alive], 108 [2 of 3 alive], 109, 110, 111 (2×), 111 [4 of 6 alive], 115, 115 [5 of 6 alive], 116, 119, 125 % of control and the survivor count [18] was 0 of 3, 1 of 3, 2 of 6, 5 of 6, 6 of 6. The T/C [19] was 86, 87, 88, 89 (2×), 89 [5 of 6 alive], 92, 95, 100, 103, 106 (2×), 107, 108 (2×), 110, 111 [4 of 6 alive], 120, 120 % of control [5 of 6 alive], the survivor count [19] was 0 of 3, 0 of 6, 1 of 6, 2 of 6, 3 of 6, 2 of 3, 3 of 3 and the T/C [20] was 88, 91 [2 of 3 alive], 95 [4 of 6 alive], 96, 98, 99, 101, 102, 103 (2×), 104, 105 [4 of 6 alive], 106, 106 [5 of 6 alive], 107 (2×), 108 (2×), 116 [5 of 6 alive], 117, 119, 125 % of control. The survivor count [20] was 0 of 3, 1 of 6, 1 of 3, 2 of 6, 3 of 6, 2 of 3, 3 of 3, 6 of 6, the T/C [5] was 88 [5 of 6 alive], 89, 94, 96, 97 [2 of 3 alive], 98, 99 (2×), 100, 100 [2 of 3 alive], 100 [5 of 6 alive], 103 (2×), 104, 105 [4 of 6 alive], 106, 107, 108 [2 of 3 alive], 109, 110 (2×), 110 [5 of 6 alive], 111, 112 (2×), 114 [4 of 6 alive], 115, 116, 120, 121, 127, 129 % of control and the survivor count [5] was 3 of 6, 3 of 3, 6 of 6.
